# Test results taken from PubChem BioAssay AID1259415 (National Center for Advancing Translational Sciences (NCATS), 2018).
# In all, about 410,000 compounds went through this assay and about 18,000 (4.4%) were called active. The shares of active, inactive and inconclusive entries below differ from those in the screen. No stated cut-off is given here; in the data, active means activity change below about -60%; inconclusive means no clear call, values can overlap the other calls; inactive means above about -39%.
# Assay: qHTS Assay for inhibitors of the human cytomegalovirus (HCMV)
# Conditions: HFF cells, HCMV-luciferase reporter, 72 h; at 57.5 µM; stronger effect = lower value
# Summary of the method: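 Two-dose cell screen: HFF monolayers treated with compounds and infected with luciferase-expressing HCMV at 1 PFU/cell, 72 h at 37C, then lysed for luciferase measurement.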
# On the % scale 0 is the no-effect control and ±100 the full control effect.
row,SMILES,"activity change, negative = inhibition"
1,O=C(NCc1ccc2c(c1)OCO2)c1cc2ccccc2oc1=O,inactive: -1.69%
2,O=C(OC(C(=O)Nc1ccc(Cl)cc1C(F)(F)F)c1ccccc1)C1=COCCO1 (stereo not drawn),inconclusive: -41.9%
3,CC(NC(=O)c1ccnc(C(C)(C)C)c1)c1ccccc1 (stereo not drawn),inconclusive: -42.7%
4,CCCC[C@H](CN[C@@H](CNC)[C@H](C)CC)NCCC12CCC(CC1)C2,active: -96.5%
5,COCCCNC(=O)CN(C1CCCCC1)S(=O)(=O)c1ccc(C)cc1,inconclusive: -41.7%
6,C=CCNC(=S)Nc1cccc([N+](=O)[O-])c1,active: -89.7%
7,COc1ccc(/C=N/Nc2nc3ccccc3o2)cc1O,inactive: 5.22%
8,Cn1c(=O)c2c(nc(NCc3ccco3)n2C/C=C/c2ccccc2)n(C)c1=O,active: -95.6%
9,COc1ccccc1Nc1nc(N2CCOCC2)nc(N2CCOCC2)n1,inconclusive: -58.9%
10,O=C(Nc1ccc(F)cc1)C(CCc1ccccc1)N1CCN(Cc2c(F)cccc2Cl)CC1 (stereo not drawn),inactive: 26.8%
11,Cc1cc(N2C(=O)C(O)=C(C(=O)c3ccco3)C2c2ccc(Cl)cc2)no1 (stereo not drawn),inconclusive: -48.7%
12,Cc1nn(C)c(C)c1/C=N/N=C1\CCC2C3CCc4cc(O)ccc4C3CCC12C (stereo not drawn),inconclusive: -48.2%
13,Cc1ccc(C)n1-n1c(C)nc2sc(-c3ccccc3)cc2c1=O,inconclusive: -42.3%
14,CC12CCC(C(=O)N(CC(O)CN3CCCCC3)C1=O)C2(C)C (stereo not drawn),inconclusive: -41.8%
15,Cc1cc(-c2ccc(C)c(S(=O)(=O)N3CCN(c4ccc(F)cc4)CC3)c2)on1,inconclusive: 0%
16,Cc1ccc(C)c(Nc2c([N+](=O)[O-])cc(C(=O)N3CC(=O)Nc4ccccc43)cc2[N+](=O)[O-])c1,inconclusive: -47.6%
17,COc1cc(NC(=O)COC(=O)CNC(=O)c2ccc(C)s2)cc(OC)c1,inconclusive: -44.9%
18,CCOc1nc(Nc2ccc(F)cc2)nc(N2CCN(c3ccc(OC)cc3)CC2)n1,inconclusive: -40.3%
19,Cc1ccccc1C(=O)N/N=C1/SCC(=O)N1Cc1ccccc1,inconclusive: -49.6%
20,CCOP(=O)(OCC)c1nc(-c2ccc(Cl)cc2Cl)oc1N1CCCCC1,inconclusive: -41%
21,O=S(=O)(NCC1CCN(c2ccc(S(=O)(=O)N3CCOCC3)cc2)CC1)c1ccccc1,inconclusive: -52.9%
22,Cc1ccc(-c2nc(NC(=O)c3nn(C)cc3[N+](=O)[O-])sc2C)cc1,active: -104%
23,Cc1onc(-c2ccccc2)c1C(=O)O/N=C(\N)c1ccc([N+](=O)[O-])o1,inactive: -9.6%

# Compounds 18 through 22, quoted:
row,SMILES,"activity change, negative = inhibition"
18,CCOc1nc(Nc2ccc(F)cc2)nc(N2CCN(c3ccc(OC)cc3)CC2)n1,inconclusive: -40.3%
19,Cc1ccccc1C(=O)N/N=C1/SCC(=O)N1Cc1ccccc1,inconclusive: -49.6%
20,CCOP(=O)(OCC)c1nc(-c2ccc(Cl)cc2Cl)oc1N1CCCCC1,inconclusive: -41%
21,O=S(=O)(NCC1CCN(c2ccc(S(=O)(=O)N3CCOCC3)cc2)CC1)c1ccccc1,inconclusive: -52.9%
22,Cc1ccc(-c2nc(NC(=O)c3nn(C)cc3[N+](=O)[O-])sc2C)cc1,active: -104%
